In paper PMC3762332:
The exact form of at least one protein or probe is not confirmed. For some assays here: Where a protein sequence is shown, tags need not be part of it.

Amino acid sequences for entries named in this document (tags omitted). A change or cut given only in a name is not applied to a line headed by its entry.
UniProt Q15583: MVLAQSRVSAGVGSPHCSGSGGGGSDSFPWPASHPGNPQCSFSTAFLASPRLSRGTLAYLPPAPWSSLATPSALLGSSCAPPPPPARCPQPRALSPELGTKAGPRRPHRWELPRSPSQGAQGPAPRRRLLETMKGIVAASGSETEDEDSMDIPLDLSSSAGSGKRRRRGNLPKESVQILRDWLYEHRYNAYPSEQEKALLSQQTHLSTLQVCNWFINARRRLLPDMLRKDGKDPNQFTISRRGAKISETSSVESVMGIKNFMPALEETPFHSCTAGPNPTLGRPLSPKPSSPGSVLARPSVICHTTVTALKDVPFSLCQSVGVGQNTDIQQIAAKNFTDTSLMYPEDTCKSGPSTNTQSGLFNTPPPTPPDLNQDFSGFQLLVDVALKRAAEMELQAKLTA
UniProt Q8TAF7: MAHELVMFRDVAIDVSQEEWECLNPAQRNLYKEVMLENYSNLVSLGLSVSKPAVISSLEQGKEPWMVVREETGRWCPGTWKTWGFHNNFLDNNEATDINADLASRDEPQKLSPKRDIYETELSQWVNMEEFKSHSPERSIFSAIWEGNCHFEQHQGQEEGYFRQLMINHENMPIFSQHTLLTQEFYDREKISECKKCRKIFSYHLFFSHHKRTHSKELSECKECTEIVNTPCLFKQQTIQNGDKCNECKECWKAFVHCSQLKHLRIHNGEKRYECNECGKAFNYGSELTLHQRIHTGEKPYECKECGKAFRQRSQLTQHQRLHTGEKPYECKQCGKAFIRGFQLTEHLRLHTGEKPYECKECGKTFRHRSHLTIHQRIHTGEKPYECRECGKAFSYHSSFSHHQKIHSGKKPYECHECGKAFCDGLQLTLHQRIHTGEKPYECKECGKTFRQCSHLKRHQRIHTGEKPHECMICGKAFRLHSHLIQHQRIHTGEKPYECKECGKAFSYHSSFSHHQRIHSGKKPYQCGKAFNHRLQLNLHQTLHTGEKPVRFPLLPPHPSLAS
UniProt Q8NC26: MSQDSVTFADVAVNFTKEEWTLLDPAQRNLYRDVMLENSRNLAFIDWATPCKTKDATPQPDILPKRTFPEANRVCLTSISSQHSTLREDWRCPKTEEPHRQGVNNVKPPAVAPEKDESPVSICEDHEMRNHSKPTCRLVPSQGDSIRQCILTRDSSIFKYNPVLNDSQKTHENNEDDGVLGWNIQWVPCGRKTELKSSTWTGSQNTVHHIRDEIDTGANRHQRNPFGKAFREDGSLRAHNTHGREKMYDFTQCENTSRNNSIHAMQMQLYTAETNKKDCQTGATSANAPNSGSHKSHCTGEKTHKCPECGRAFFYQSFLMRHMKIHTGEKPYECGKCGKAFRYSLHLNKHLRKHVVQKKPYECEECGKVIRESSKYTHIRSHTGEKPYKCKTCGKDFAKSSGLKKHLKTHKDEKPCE
UniProt Q9Y2L8: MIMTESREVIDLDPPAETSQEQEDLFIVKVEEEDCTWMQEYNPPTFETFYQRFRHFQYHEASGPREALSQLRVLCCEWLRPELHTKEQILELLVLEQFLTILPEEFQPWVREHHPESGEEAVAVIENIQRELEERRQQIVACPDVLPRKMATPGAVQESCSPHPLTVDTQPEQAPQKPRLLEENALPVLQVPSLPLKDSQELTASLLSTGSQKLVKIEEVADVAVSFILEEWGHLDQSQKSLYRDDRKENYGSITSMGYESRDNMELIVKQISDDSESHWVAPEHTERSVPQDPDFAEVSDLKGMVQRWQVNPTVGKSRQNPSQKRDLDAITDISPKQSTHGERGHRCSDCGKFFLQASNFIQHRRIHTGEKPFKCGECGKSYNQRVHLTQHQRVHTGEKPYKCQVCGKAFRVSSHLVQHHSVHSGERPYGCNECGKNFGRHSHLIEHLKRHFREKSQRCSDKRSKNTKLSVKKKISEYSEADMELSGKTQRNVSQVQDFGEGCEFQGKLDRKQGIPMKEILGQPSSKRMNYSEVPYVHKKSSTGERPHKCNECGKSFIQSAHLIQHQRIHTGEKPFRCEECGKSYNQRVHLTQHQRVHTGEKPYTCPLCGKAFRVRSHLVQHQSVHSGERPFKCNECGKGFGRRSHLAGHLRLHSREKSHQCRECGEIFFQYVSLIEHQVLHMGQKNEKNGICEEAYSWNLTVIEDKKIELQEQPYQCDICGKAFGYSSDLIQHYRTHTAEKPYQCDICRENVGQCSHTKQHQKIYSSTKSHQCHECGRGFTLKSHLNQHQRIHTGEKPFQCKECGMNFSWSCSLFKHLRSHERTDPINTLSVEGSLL
UniProt P19793: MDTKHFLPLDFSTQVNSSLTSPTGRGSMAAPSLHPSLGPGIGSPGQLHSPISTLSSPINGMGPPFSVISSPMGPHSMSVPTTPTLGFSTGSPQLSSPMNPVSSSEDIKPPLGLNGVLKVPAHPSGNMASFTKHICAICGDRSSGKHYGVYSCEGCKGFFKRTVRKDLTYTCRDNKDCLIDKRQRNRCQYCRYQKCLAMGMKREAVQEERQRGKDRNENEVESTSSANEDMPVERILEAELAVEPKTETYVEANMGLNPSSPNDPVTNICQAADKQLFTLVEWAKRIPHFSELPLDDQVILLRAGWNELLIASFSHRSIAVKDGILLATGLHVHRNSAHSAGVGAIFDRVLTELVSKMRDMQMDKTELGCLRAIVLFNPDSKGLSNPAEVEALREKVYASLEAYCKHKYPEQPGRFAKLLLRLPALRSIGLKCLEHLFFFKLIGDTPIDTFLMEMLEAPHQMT
UniProt Q9BWM5: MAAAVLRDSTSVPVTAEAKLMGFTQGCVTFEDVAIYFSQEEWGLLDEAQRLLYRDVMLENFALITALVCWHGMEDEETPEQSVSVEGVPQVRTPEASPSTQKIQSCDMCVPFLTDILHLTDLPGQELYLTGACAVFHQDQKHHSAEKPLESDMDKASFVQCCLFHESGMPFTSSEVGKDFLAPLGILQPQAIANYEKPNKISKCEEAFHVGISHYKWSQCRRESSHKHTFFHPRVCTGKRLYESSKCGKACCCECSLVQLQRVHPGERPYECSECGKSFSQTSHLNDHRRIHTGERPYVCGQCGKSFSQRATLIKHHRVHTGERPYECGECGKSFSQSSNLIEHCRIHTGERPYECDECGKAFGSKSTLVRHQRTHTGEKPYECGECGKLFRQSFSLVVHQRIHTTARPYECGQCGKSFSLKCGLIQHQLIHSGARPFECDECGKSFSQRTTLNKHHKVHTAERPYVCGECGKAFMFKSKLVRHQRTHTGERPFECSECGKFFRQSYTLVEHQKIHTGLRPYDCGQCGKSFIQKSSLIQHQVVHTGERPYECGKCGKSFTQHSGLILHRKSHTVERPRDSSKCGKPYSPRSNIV
UniProt Q08945, whole entry: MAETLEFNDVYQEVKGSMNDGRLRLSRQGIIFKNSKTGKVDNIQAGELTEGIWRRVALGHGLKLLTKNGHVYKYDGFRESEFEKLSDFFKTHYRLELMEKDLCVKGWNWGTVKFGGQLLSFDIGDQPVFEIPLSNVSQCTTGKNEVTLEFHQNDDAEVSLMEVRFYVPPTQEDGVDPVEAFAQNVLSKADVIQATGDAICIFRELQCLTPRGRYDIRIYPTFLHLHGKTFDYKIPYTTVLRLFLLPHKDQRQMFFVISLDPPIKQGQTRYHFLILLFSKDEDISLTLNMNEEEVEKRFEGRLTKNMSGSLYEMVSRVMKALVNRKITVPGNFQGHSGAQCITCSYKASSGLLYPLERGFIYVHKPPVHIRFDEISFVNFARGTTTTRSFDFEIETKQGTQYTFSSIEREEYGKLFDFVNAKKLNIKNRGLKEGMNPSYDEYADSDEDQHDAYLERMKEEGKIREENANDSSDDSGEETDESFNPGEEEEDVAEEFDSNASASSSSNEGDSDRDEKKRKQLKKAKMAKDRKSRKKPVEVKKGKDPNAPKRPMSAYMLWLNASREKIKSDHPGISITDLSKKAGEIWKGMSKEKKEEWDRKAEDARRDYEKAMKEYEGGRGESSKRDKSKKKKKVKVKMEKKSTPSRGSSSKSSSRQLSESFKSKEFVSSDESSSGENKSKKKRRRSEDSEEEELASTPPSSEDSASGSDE
UniProt P23771: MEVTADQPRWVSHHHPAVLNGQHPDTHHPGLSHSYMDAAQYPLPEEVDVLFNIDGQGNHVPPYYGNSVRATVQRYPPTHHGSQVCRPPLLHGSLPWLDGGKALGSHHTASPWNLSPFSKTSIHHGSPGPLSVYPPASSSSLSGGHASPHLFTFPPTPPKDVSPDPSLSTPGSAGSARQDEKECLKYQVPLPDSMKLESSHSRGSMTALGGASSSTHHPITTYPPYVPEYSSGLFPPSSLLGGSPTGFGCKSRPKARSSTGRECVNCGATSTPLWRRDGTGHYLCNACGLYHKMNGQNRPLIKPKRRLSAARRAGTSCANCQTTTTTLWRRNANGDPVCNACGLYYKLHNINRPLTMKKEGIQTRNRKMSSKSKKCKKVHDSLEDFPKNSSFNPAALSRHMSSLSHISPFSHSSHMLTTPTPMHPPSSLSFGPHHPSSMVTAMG
UniProt P43694: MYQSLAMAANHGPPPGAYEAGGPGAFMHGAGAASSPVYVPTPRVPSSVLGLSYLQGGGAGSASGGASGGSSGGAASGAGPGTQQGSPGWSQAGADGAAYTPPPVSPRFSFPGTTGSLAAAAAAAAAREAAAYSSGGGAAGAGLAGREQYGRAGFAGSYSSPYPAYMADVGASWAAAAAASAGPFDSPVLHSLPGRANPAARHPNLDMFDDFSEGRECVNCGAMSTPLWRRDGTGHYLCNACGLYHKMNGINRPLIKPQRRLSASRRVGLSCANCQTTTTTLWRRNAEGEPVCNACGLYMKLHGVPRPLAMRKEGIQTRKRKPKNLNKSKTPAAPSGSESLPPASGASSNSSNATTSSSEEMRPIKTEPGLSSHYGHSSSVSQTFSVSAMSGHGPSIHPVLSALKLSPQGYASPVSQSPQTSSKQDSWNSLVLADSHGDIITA
UniProt Q8IW36: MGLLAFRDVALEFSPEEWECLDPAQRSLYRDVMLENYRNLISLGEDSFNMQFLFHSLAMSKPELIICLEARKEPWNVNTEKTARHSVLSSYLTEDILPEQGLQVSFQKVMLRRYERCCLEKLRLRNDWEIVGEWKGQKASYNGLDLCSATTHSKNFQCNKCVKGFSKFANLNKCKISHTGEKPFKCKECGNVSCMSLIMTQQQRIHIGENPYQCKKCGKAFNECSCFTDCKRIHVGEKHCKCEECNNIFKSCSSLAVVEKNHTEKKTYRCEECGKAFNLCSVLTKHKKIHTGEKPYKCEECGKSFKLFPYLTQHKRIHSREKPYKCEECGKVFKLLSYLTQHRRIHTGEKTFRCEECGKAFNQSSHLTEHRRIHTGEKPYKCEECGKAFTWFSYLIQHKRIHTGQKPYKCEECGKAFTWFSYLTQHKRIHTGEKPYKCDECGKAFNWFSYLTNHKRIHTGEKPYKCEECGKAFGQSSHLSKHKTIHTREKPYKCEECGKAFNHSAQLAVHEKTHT
UniProt O00716: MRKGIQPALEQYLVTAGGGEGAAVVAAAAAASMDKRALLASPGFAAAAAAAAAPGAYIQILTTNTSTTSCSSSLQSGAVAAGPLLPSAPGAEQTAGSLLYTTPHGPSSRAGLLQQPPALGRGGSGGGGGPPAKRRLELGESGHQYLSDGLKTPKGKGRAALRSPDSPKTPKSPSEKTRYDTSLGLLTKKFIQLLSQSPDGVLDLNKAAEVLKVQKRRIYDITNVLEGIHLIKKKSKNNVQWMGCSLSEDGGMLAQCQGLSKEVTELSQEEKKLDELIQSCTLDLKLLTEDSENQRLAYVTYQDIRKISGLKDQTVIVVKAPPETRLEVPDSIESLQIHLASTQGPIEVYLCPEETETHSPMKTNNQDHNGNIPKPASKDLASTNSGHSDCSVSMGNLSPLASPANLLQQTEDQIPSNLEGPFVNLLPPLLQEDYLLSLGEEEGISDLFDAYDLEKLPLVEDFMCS
UniProt P37231: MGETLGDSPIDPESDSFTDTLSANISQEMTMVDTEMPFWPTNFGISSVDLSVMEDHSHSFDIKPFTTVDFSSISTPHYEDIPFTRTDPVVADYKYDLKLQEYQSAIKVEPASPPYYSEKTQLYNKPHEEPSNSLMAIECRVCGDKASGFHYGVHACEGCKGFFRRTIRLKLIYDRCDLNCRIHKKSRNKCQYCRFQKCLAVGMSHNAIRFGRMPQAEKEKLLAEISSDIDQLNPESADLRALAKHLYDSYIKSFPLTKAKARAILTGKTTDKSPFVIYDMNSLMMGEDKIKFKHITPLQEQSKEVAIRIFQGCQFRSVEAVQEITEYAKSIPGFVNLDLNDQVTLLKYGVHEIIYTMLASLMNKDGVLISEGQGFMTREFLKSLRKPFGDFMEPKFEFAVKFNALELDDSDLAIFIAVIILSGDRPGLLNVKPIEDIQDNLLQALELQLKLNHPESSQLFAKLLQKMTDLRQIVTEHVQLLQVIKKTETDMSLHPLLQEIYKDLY

Experiments:
Experiment in all cases: protein microarray
Settings in all cases: 10-fold cold unmethylated competitor; 5mC at CpG (SssI, both strands); recombinant protein; protein details: GST (N-terminal); label: Cy5
TGIF1 (Homo sapiens) = TGIF1 (Homo sapiens) (UniProt Q15583)
ZNF461 (Homo sapiens) = ZNF461 (Homo sapiens) (UniProt Q8TAF7)
ZNF114 (Homo sapiens) = ZNF114 (Homo sapiens) (UniProt Q8NC26)
HOXA5 (Homo sapiens) = HOXA5 (Homo sapiens) (UniProt P20719)
ZKSCAN5 (Homo sapiens) = ZKSCAN5 (Homo sapiens) (UniProt Q9Y2L8)
RXRA (Homo sapiens) = RXRA (Homo sapiens) (UniProt P19793)
SCAPER (Homo sapiens) = target: T1, SCAPER (Homo sapiens) (UniProt Q9BY12)
T1 sequence (looked up, limits assumed): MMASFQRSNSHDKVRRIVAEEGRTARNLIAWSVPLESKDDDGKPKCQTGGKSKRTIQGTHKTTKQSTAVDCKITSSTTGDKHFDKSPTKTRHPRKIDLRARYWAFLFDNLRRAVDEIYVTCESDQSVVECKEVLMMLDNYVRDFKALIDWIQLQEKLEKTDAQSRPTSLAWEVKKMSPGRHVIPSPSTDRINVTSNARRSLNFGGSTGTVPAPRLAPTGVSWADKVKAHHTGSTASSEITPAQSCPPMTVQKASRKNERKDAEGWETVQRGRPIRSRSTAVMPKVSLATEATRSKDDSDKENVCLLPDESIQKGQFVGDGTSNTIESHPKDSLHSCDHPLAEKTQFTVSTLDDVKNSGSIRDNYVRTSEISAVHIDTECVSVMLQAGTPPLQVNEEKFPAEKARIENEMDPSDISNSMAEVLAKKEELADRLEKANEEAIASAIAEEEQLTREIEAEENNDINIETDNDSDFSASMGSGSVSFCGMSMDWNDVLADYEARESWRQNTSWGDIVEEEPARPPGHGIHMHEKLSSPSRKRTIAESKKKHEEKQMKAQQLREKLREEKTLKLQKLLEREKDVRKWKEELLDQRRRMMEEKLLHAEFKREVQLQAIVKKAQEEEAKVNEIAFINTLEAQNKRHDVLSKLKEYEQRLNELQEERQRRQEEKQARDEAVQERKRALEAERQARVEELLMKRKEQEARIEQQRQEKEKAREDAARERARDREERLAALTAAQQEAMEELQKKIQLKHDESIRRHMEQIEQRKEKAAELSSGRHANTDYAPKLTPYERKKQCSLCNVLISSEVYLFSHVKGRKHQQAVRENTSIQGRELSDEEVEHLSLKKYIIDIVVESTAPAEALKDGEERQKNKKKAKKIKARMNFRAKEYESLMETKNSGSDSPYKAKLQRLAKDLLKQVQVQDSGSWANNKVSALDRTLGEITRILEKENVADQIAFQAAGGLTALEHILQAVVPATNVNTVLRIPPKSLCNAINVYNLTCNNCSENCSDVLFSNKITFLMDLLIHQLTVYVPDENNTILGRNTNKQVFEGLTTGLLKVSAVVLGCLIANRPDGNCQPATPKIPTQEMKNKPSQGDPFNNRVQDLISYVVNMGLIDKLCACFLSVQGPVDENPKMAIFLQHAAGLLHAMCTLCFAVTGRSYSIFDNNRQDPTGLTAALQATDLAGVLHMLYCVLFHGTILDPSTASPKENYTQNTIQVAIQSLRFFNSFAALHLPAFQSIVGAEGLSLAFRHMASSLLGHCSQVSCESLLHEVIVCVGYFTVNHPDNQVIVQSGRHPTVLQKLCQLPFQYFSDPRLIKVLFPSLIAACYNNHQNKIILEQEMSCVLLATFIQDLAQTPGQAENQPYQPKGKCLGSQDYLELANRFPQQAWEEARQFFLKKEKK

RNF138 (Homo sapiens) = target: T2, RNF138 (Homo sapiens) (UniProt Q8WVD3)
T2 sequence (looked up, limits assumed): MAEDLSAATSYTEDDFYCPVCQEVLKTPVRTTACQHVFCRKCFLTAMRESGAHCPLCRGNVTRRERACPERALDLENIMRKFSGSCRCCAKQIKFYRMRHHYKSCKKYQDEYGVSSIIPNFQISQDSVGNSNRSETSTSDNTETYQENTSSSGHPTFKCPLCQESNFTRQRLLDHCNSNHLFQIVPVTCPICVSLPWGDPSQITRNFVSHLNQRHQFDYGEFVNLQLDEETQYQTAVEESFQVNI

ZNF416 (Homo sapiens) = ZNF416 (Homo sapiens) (UniProt Q9BWM5)
SSRP1 (Homo sapiens) = SSRP1 (Homo sapiens) (UniProt Q08945)
GATA3 (Homo sapiens) = GATA3 (Homo sapiens) (UniProt P23771)
GATA4 (Homo sapiens) = GATA4 (Homo sapiens) (UniProt P43694)
SMAD4 (Homo sapiens) = target: T3, SMAD4 (Homo sapiens) (UniProt Q13485)
T3 sequence (looked up, limits assumed): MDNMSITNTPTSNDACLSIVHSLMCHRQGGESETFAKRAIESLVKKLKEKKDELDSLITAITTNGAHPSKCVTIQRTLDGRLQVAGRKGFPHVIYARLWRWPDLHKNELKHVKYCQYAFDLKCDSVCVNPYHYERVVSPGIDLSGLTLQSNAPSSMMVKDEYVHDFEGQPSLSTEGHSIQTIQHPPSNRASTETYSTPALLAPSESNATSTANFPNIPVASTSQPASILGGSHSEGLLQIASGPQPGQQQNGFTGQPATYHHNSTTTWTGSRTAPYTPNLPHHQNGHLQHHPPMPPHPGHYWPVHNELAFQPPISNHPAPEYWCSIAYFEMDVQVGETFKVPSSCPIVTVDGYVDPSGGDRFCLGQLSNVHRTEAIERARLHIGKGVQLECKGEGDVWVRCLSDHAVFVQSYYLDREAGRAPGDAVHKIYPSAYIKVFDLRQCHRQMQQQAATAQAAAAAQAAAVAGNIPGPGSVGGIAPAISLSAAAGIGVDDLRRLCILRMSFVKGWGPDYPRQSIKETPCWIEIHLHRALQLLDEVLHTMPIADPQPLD

ZNF695 (Homo sapiens) = ZNF695 (Homo sapiens) (UniProt Q8IW36)
BCL3 (Homo sapiens) = target: T4, BCL3 (Homo sapiens) (UniProt P20749)
T4 sequence (looked up, limits assumed): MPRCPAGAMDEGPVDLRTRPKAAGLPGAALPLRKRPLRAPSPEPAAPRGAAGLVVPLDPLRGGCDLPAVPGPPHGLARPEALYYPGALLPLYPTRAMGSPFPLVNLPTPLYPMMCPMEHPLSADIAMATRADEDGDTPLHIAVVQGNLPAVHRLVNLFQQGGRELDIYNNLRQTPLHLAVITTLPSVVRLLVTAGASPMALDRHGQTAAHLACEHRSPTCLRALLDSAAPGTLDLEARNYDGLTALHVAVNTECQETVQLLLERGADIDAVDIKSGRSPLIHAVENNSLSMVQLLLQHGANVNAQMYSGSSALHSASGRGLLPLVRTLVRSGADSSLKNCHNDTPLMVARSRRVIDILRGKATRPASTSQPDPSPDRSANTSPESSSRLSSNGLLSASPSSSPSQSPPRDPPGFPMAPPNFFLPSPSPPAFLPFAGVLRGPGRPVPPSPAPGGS

E2F3 (Homo sapiens) = E2F3 (Homo sapiens) (UniProt O00716)
PPARG (Homo sapiens) = PPARG (Homo sapiens) (UniProt P37231)
NRF1 (Homo sapiens) = target: T5, NRF1 (Homo sapiens) (UniProt Q16656)
T5 sequence (looked up, limits assumed): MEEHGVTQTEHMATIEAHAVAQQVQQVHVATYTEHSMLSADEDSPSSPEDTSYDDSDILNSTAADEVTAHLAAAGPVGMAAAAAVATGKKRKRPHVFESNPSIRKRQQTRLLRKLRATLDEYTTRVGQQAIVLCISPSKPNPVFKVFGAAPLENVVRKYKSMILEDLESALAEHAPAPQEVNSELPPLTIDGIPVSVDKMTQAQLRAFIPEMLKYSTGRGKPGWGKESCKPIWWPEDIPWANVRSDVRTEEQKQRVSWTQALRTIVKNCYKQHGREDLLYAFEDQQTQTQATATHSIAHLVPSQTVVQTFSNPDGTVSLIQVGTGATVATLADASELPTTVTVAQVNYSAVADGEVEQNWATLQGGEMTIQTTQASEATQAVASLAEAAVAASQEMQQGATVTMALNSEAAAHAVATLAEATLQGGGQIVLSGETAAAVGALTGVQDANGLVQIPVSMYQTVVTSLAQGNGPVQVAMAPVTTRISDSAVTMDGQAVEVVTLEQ

ZCCHC7 (Homo sapiens) = target: T6, ZCCHC7 (Homo sapiens) (UniProt Q8N3Z6)
T6 sequence (looked up, limits assumed): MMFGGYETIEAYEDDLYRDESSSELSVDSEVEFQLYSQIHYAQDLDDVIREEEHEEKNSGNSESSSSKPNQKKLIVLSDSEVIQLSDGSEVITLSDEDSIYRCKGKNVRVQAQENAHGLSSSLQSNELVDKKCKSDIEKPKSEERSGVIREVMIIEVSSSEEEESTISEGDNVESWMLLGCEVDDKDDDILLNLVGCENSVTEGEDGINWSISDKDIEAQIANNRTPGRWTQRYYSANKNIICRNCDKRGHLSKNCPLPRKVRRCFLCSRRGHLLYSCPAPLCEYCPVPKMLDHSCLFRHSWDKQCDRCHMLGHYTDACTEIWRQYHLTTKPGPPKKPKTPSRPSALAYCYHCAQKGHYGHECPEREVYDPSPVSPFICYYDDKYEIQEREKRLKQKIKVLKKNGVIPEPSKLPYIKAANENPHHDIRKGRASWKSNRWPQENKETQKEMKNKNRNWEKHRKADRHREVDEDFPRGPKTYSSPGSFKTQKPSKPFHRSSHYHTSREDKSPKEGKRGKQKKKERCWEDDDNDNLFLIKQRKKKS

Measured: binding result

AACCGTCGAAAAACCGTCGCCCTATAGTGAGTGCTATTA (double strand) [M426]
binds: TGIF1 (Homo sapiens) | ZNF461 (Homo sapiens) | ZNF114 (Homo sapiens)

CCGGACATAACGAAACCGGACATAACGCCCTATAGTGAGTGCTATTA (double strand) [M369]
binds: TGIF1 (Homo sapiens) | ZNF461 (Homo sapiens) | ZNF114 (Homo sapiens) | HOXA5 (Homo sapiens) | ZKSCAN5 (Homo sapiens) | RXRA (Homo sapiens) | SCAPER (Homo sapiens)

CACGACGCTTTCACGACGCCCCTATAGTGAGTGCTATTA (double strand) [M435]
binds: TGIF1 (Homo sapiens) | RNF138 (Homo sapiens) | ZNF461 (Homo sapiens) | ZNF416 (Homo sapiens) | ZNF114 (Homo sapiens) | HOXA5 (Homo sapiens) | RXRA (Homo sapiens)

CCGCCGGAAACCGCCGGCCCTATAGTGAGTGCTATTA (double strand) [M65]
binds: ZNF461 (Homo sapiens) | ZNF114 (Homo sapiens) | HOXA5 (Homo sapiens) | SCAPER (Homo sapiens)

GACGAGAAGGGGACGAGAACCCTATAGTGAGTGCTATTA (double strand) [M422]
binds: TGIF1 (Homo sapiens) | RNF138 (Homo sapiens) | ZNF461 (Homo sapiens) | ZNF114 (Homo sapiens) | HOXA5 (Homo sapiens)

ACCCGGATTTACCCGGACCCTATAGTGAGTGCTATTA (double strand) [M313]
not listed: TGIF1 (Homo sapiens) | ZNF461 (Homo sapiens) | ZKSCAN5 (Homo sapiens) | ZCCHC7 (Homo sapiens)
binds: all other assays above

CTCGCCCTTTCTCGCCCCCCTATAGTGAGTGCTATTA (double strand) [M316]
not listed: TGIF1 (Homo sapiens) | ZNF461 (Homo sapiens) | ZKSCAN5 (Homo sapiens) | NRF1 (Homo sapiens)
binds: all other assays above
